# Measurements taken from the supplement of paper PMC12873370.
# Values joined by “and” are separate entries in the source; they are usually repeats but may differ in a detail not shown here. Equal values may be shown once. The list shows a part of the results. Many values rest on one well or one pass, so single values are uncertain.
# Legend:
# [1] = test system: MEPP (mouse ovarian epithelium Trp53/Pten KO); assay: cell viability relative to untreated (fraction); higher = less growth inhibition; conditions: 5 µM; 3 days
# [2] = test system: PREPP (mouse prostate epithelium Trp53/Pten KO); assay: as above; conditions: 5 µM; 3 days
structure (smiles),measurement,setting,value
CO[C@H]1O[C@@H]2O[C@@]3(C)CC[C@H]4[C@H](C)CC[C@@H]([C@H]1C)[C@@]24OO3,cell viability,[1],1.02
same,cell viability,[2],0.804
C[N+](C)(C)CCO.O=C([O-])C(O)C(O)C(=O)O (stereo not drawn),cell viability,[1],0.819
same,cell viability,[2],1.17
CN[C@@H]1[C@H](O[C@H]2[C@H](O[C@H]3[C@H](O)[C@@H](O)[C@H](N=C(N)N)[C@@H](O)[C@@H]3N=C(N)N)O[C@@H](C)[C@]2(O)C=O)O[C@@H](CO)[C@H](O)[C@H]1O,cell viability,[1],0.883
same,cell viability,[2],0.91
O[C@H]1[C@H]2c3cc4c(cc3CN3CCC(=C[C@@H]1O)[C@H]23)OCO4,cell viability,[1],0.51
same,cell viability,[2],0.538
O=C(O)/C=C/c1cccc(O)c1,cell viability,[1],1.08
same,cell viability,[2],0.976
OC[C@@H](O)[C@@H](O[C@H]1O[C@H](CO)[C@@H](O)[C@H](O)[C@H]1O)[C@H](O)[C@@H](O)CO,cell viability,[1],0.807
same,cell viability,[2],1.06
CNC[C@H](O)c1cccc(O)c1,cell viability,[1],1.05
same,cell viability,[2],0.991
Cc1cc(O)cc(O[C@@H]2O[C@H](CO)[C@@H](O)[C@H](O)[C@H]2O)c1,cell viability,[1],0.858
same,cell viability,[2],0.909
CC1(C)C=Cc2c(ccc3c2OC[C@@H](c2ccc(O)cc2O)C3)O1,cell viability,[1],1.07
same,cell viability,[2],1.13
C[C@]12CC[C@@H]3c4ccc(OC(=O)c5ccccc5)cc4CC[C@H]3[C@@H]1CC[C@@H]2O,cell viability,[1],0.787
same,cell viability,[2],0.846
Oc1ccc(CC2NCCc3cc(O)c(O)cc32)cc1 (stereo not drawn),cell viability,[1],0.892
same,cell viability,[2],1.04
CCCCCCC(O)C(=O)O (stereo not drawn),cell viability,[1],0.942
same,cell viability,[2],0.862
CC(=O)c1ccccc1O,cell viability,[1],1.08
same,cell viability,[2],0.956
COc1cc(O)c2c(=O)c(O[C@@H]3O[C@H](CO)[C@@H](O)[C@H](O)[C@H]3O)c(-c3ccc(O[C@@H]4O[C@H](CO)[C@@H](O)[C@H](O)[C@H]4O)cc3)oc2c1,cell viability,[1],1.38
same,cell viability,[2],0.966
C[C@H](CCCC(C)(C)O)[C@H]1CC[C@H]2[C@@H]3CC=C4C[C@@H](O)CC[C@]4(C)[C@H]3CC[C@]12C,cell viability,[1],1.07
same,cell viability,[2],0.842
C[C@]12CC[C@@H]3c4ccc(O)cc4CC[C@H]3[C@@H]1C[C@@H](O)[C@@H]2O,cell viability,[1],0.96
same,cell viability,[2],0.894
C[C@H](O)[C@@H](O)[C@@H](O)[C@H](O)C=O,cell viability,[1],0.915
same,cell viability,[2],0.703
CCCCCOC(=O)Nc1nc(=O)n([C@@H]2O[C@H](C)[C@@H](O)[C@H]2O)cc1F,cell viability,[1],1.04
same,cell viability,[2],0.981
Nc1ccc(O)cc1,cell viability,[1],1.2
same,cell viability,[2],0.927
COc1cc2c(=O)c3c(O)c([C@@H]4O[C@H](CO[C@@H]5OC[C@](O)(CO)[C@H]5O)[C@@H](O)[C@H](O)[C@H]4O)c(O)cc3oc2cc1O,cell viability,[1],1.04
same,cell viability,[2],0.995
NOCC(=O)O,cell viability,[1],1.03
same,cell viability,[2],1.05
C[C@H]1COC2=C1C(=O)C(=O)c1c2ccc2c1CCCC2(C)C,cell viability,[1],1.31
same,cell viability,[2],1.34
O[C@@H]1[C@H](O)[C@H](O)CO[C@H]1O,cell viability,[1],1.09
same,cell viability,[2],0.947
OB1OCc2cc(F)ccc21,cell viability,[1],1.25
same,cell viability,[2],0.885
CO/N=C1\C[C@]2(C[C@@H]3C[C@@H](C/C=C(\C)C[C@@H](C)/C=C/C=C4\CO[C@@H]5[C@H](O)C(C)=C[C@@H](C(=O)O3)[C@]45O)O2)O[C@H](/C(C)=C/C(C)C)[C@H]1C,cell viability,[1],0.838
same,cell viability,[2],1.07
O=C[C@H](O)[C@@H](O)[C@@H](O)[C@H](O)CO,cell viability,[1],0.92
same,cell viability,[2],1.08
O=C([O-])CC(O)(CC(=O)[O-])C(=O)[O-].O=C([O-])CC(O)(CC(=O)[O-])C(=O)[O-].[Bi+3].[K+].[K+].[K+],cell viability,[1],0.961
same,cell viability,[2],0.94
CN(CC(=O)O)C(=N)N,cell viability,[1],0.984 and 0.902
same,cell viability,[2],1.08 and 0.89
Cc1cc(=O)c2c(O)c3c(cc2o1)OC(C)(C)[C@@H](O[C@@H]1O[C@H](CO)[C@@H](O)[C@H](O)[C@H]1O)C3,cell viability,[1],0.997
same,cell viability,[2],1.05
CC(C)(O)CC[C@@H](O)[C@](C)(O)[C@H]1CC[C@@]2(O)C3=CC(=O)[C@@H]4C[C@@H](O)[C@@H](O)C[C@]4(C)[C@H]3CC[C@]12C,cell viability,[1],1.54
same,cell viability,[2],0.91
O=C(O)/C=C\C=C/C(=O)O,cell viability,[1],1
same,cell viability,[2],1.08
CC1(C)S[C@@H]2[C@H](NC(=O)Cc3ccccc3)C(=O)N2[C@H]1C(=O)O,cell viability,[1],0.9 and 1.01
same,cell viability,[2],0.912 and 0.88
CSCC[C@H](NC(C)=O)C(=O)O,cell viability,[1],1.12
same,cell viability,[2],1
C[C@]12CC[C@@H]3c4ccc(O)cc4CC[C@H]3[C@@H]1CC[C@@H]2OC(=O)CCC1CCCC1,cell viability,[1],0.975
same,cell viability,[2],0.936
CC(=O)NCC(=O)O,cell viability,[1],0.799
same,cell viability,[2],1.01
OCC1OC(O)CC(O)C1O (stereo not drawn),cell viability,[1],0.991
same,cell viability,[2],0.894
C[N+](C)(C)CCO.[Cl-],cell viability,[1],1.22
same,cell viability,[2],0.986
COc1ccc2cc(C(=O)O)ccc2c1,cell viability,[1],0.838
same,cell viability,[2],1.19
C[C@]12CCC(=O)C=C1CC[C@@H]1[C@@H]2[C@@H](O)C[C@@]2(C)[C@H]1CC[C@]2(O)C(=O)COC(=O)CCC(=O)O,cell viability,[1],0.84
same,cell viability,[2],0.802
CCCCc1oc2ccc(NS(C)(=O)=O)cc2c1C(=O)c1ccc(OCCCN(CCCC)CCCC)cc1,cell viability,[1],1.07
same,cell viability,[2],0.878
O=C(/C=C/c1ccc(O)cc1)OC[C@H]1O[C@@H](Oc2c(-c3ccc(O)cc3)oc3cc(O)cc(O)c3c2=O)[C@H](O)[C@@H](O)[C@@H]1O,cell viability,[1],0.988
same,cell viability,[2],0.867
C=C1C[C@@]23CC[C@H]4[C@@](C)(CCC[C@@]4(C)C(=O)O[C@@H]4O[C@H](CO)[C@@H](O)[C@H](O)[C@H]4O)[C@@H]2CC[C@]1(O[C@@H]1O[C@H](CO)[C@@H](O)[C@H](O)[C@H]1O[C@@H]1O[C@H](CO)[C@@H](O)[C@H](O)[C@H]1O)C3,cell viability,[1],1.18
same,cell viability,[2],1
C=CCSCC=C,cell viability,[1],0.884
same,cell viability,[2],0.878
Nc1cc[nH]c(=O)n1,cell viability,[1],1.44
same,cell viability,[2],0.91
C[C@H](CCC(=O)NCCS(=O)(=O)O)[C@H]1CC[C@H]2[C@@H]3[C@@H](O)C[C@@H]4C[C@H](O)CC[C@]4(C)[C@H]3CC[C@]12C,cell viability,[1],0.873
same,cell viability,[2],0.853
Cc1ccc2oc(=O)ccc2c1,cell viability,[1],0.888
same,cell viability,[2],1.03
Cc1ccc(O)c(O)c1,cell viability,[1],0.954
same,cell viability,[2],0.767
O=C(O)CCCC[C@@H]1SC[C@@H]2NC(=O)N[C@@H]21,cell viability,[1],1.27
same,cell viability,[2],0.959
COC1=C2C[C@@H](C)C[C@H](OC)[C@H](O)[C@@H](C)/C=C(\C)[C@H](OC(N)=O)[C@@H](OC)/C=C\C=C(/C)C(=O)NC(=CC1=O)C2=O,cell viability,[1],1.04
same,cell viability,[2],0.41
Cc1cn([C@@H]2C[C@@H](O)[C@H](CO)O2)c(=O)[nH]c1=O,cell viability,[1],1.07
same,cell viability,[2],1.02
O=C(O)[C@H](O)Cc1ccc(O)c(O)c1,cell viability,[1],1.27
same,cell viability,[2],1.19
CO[C@H]1/C=C/O[C@@]2(C)Oc3c(C)c(O)c4c(O)c(c(/C=N/N5CCN(C)CC5)c(O)c4c3C2=O)NC(=O)/C(C)=C\C=C\[C@H](C)[C@H](O)[C@@H](C)[C@@H](O)[C@@H](C)[C@H](OC(C)=O)[C@@H]1C,cell viability,[1],0.906
same,cell viability,[2],0.844
Nc1ccc(C(=O)O)cc1,cell viability,[1],1.1
same,cell viability,[2],0.971
COc1ccccc1O,cell viability,[1],1.12
same,cell viability,[2],0.78
COc1c(O)cc2c(c1O)[C@@H]1O[C@H](CO)[C@@H](O)[C@H](O)[C@H]1OC2=O,cell viability,[1],1.2
same,cell viability,[2],0.946
COc1cc(CCC(=O)O)ccc1O,cell viability,[1],1.04
same,cell viability,[2],0.976
COc1cc(/C=C/c2ccc(O)cc2)cc(OC)c1,cell viability,[1],0.988
same,cell viability,[2],0.835
CCc1cc(C(N)=S)ccn1,cell viability,[1],1.08
same,cell viability,[2],0.869
C=CC1=C(C(=O)O)N2C(=O)[C@@H](NC(=O)/C(=N\OCC(=O)O)c3csc(N)n3)[C@H]2SC1,cell viability,[1],1.08
same,cell viability,[2],0.905
O=c1[nH]cnc2c1ncn2[C@H]1C[C@H](O)[C@@H](CO)O1,cell viability,[1],0.966
same,cell viability,[2],0.937
CC1(C)CC[C@]2(C(=O)O)CC[C@]3(C)[C@H](C(=O)C=C4[C@@]5(C)C=C(C#N)C(=O)C(C)(C)[C@@H]5CC[C@]43C)[C@@H]2C1,cell viability,[1],0.466
same,cell viability,[2],0.787
O=C(O)c1cc(=O)[nH]c(=O)[nH]1,cell viability,[1],1.15
same,cell viability,[2],1
CC(C)c1ccc(C=O)cc1,cell viability,[1],1.01
same,cell viability,[2],0.95
C[C@@H](O)[C@H]1C(=O)N2C(C(=O)O)=C(S[C@@H]3CN[C@H](CNS(N)(=O)=O)C3)[C@H](C)[C@H]12,cell viability,[1],1.12 and 1.01
same,cell viability,[2],0.933 and 0.912
CO[C@H]1/C=C\C=C(/C)C(=O)NC2=CC(=O)C(NCCN(C)C)=C(C[C@@H](C)C[C@H](OC)[C@H](O)[C@@H](C)/C=C(\C)[C@@H]1OC(N)=O)C2=O,cell viability,[1],0.949
same,cell viability,[2],0.359
CC(CC(=O)O)CC(=O)O,cell viability,[1],1.22
same,cell viability,[2],0.98
O=c1c(O[C@@H]2O[C@H](CO)[C@@H](O)[C@H](O)[C@H]2O)c(-c2ccc(O)c(O)c2)oc2cc(O)cc(O)c12,cell viability,[1],1.11
same,cell viability,[2],0.902
CC(C)CCC[C@@H](C)[C@H]1CC[C@H]2[C@@H]3CCC4=CC(=NO)CC[C@]4(C)[C@H]3CC[C@]12C,cell viability,[1],1.05
same,cell viability,[2],0.852
CN[C@@H]1[C@@H](O[C@H]2O[C@H](CO)[C@@H](N)[C@H](O)[C@H]2O)OC2C[C@@H](N)[C@@H](O[C@H]3[C@H](O)[C@@H](O)[C@H](N)C[C@@H]3N)OC2[C@@H]1O (stereo partly drawn),cell viability,[1],1.11
same,cell viability,[2],0.939
C[C@H](N)C(=O)O,cell viability,[1],1.03
same,cell viability,[2],1.04
N[C@@H]1CN(c2c(F)cc3c(=O)c(C(=O)O)cn([C@@H]4C[C@@H]4F)c3c2Cl)CC12CC2,cell viability,[1],0.76
same,cell viability,[2],0.753
OC1COC(O)C(O)C1O (stereo not drawn),cell viability,[1],1.21
same,cell viability,[2],0.986
COc1cc(C(C)=O)cc(OC)c1O,cell viability,[1],0.9
same,cell viability,[2],1.07
O=C(O)CCCCCCCC(=O)O,cell viability,[1],0.958
same,cell viability,[2],0.947
O=NO,cell viability,[1],1.35
same,cell viability,[2],1.03
Cc1onc(-c2ccccc2)c1C(=O)N[C@@H]1C(=O)N2[C@@H]1SC(C)(C)[C@@H]2C(=O)O,cell viability,[1],0.927
same,cell viability,[2],0.933
CC(C)(c1ccc(O)cc1)c1ccc(O)cc1,cell viability,[1],0.863
same,cell viability,[2],0.989
C[C@@H]1O[C@@H](OC[C@H]2O[C@@H](Oc3c(-c4ccc(O)cc4)oc4cc(O)cc(O)c4c3=O)[C@H](O)[C@@H](O)[C@@H]2O)[C@H](O)[C@H](O)[C@H]1O,cell viability,[1],1.13
same,cell viability,[2],0.874
COc1c2c(cc3oc(CO)cc(=O)c13)O[C@H](C(C)(C)O)C2,cell viability,[1],1.37
same,cell viability,[2],0.906

# An excerpt of these results, bar-delimited:
structure (smiles) | measurement | setting | value
CCCCCOC(=O)Nc1nc(=O)n([C@@H]2O[C@H](C)[C@@H](O)[C@H]2O)cc1F | cell viability | [2] | 0.981
Cc1cn([C@@H]2C[C@@H](O)[C@H](CO)O2)c(=O)[nH]c1=O | cell viability | [2] | 1.02
COc1ccccc1O | cell viability | [2] | 0.78
COc1cc(CCC(=O)O)ccc1O | cell viability | [1] | 1.04
O=c1[nH]cnc2c1ncn2[C@H]1C[C@H](O)[C@@H](CO)O1 | cell viability | [2] | 0.937
CC1(C)CC[C@]2(C(=O)O)CC[C@]3(C)[C@H](C(=O)C=C4[C@@]5(C)C=C(C#N)C(=O)C(C)(C)[C@@H]5CC[C@]43C)[C@@H]2C1 | cell viability | [1] | 0.466

# Three entries from above, with tabs.
structure (smiles)	measurement	setting	value
Cc1cc(O)cc(O[C@@H]2O[C@H](CO)[C@@H](O)[C@H](O)[C@H]2O)c1	cell viability	[2]	0.909
C[C@H](CCC(=O)NCCS(=O)(=O)O)[C@H]1CC[C@H]2[C@@H]3[C@@H](O)C[C@@H]4C[C@H](O)CC[C@]4(C)[C@H]3CC[C@]12C	cell viability	[2]	0.853
C[C@@H]1O[C@@H](OC[C@H]2O[C@@H](Oc3c(-c4ccc(O)cc4)oc4cc(O)cc(O)c4c3=O)[C@H](O)[C@@H](O)[C@@H]2O)[C@H](O)[C@H](O)[C@H]1O	cell viability	[1]	1.13
